At least one structure is not confirmed: it was looked up by name or label, or the drawing left a doubt.
What was measured:
[1] = target: T1, ETBR (endothelin-bombesin receptor) expressed in Xenopus oocytes (Homo sapiens, UniProt O15354); experiment: Xenopus oocyte assay to identify ligand (voltage-clamp, calcium activated chloride channel activity); assay type: cell-based
T1 construct: expressed in transfected cells; host or cells: Xenopus oocytes microinjected with in vitro transcribed RNA
T1 sequence (O15354 27-613): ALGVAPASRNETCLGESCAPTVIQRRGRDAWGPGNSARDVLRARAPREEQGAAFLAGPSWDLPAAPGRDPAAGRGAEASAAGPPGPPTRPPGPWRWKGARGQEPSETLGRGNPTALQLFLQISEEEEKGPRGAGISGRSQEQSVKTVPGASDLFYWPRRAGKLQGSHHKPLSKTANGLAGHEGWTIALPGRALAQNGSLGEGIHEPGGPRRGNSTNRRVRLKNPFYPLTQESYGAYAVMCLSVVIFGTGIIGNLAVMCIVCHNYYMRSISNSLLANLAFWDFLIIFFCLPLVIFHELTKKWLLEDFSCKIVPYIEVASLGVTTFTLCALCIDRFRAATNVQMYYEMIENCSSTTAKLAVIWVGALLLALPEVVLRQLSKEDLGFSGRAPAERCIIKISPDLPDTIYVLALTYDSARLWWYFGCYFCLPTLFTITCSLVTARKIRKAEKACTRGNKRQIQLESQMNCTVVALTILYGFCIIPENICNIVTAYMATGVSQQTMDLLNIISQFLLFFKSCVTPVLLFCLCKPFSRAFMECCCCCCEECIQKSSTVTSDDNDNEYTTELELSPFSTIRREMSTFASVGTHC
Method: Arrow indicates ET1 addition. […] The mean peak ± S.E. peak current response to ET1 is 150±50 (n=75), ET2 156±55 (n=75) and Bombesin 148±47 (n=75).
(§1) RNA was synthesized in vitro from linearized DNA, ATCC #75823, using an RNA transcription kit. This RNA was microinjected into Xenopus oocytes (10 ng of RNA/occytes). The oocytes were manually defolliculated prior to microinjection to remove any endogenous receptors that might be present in the follicular membranes. The injected oocytes were maintained in modified Barth's medium at 18° C. for 48 hours to allow for receptor protein expression. Electrophysiology was performed using the voltage-clamp technique. Oocytes were clamped at −60 mV and the calcium activated chloride channel activity was recorded in Barth's medium at room temperature. Data were analyzed using Axotape software.
(§2) The ET1 and ET3 mediated response was blocked by the ET receptor peptide antagonist BQ123. […] Since it responds to both ET and Bombesin it represents a novel endothelin-bombesin receptor.

uninjected oocytes = experiment: Uninjected Xenopus oocytes (control for endogenous response); assay type: cell-based; conditions: uninjected oocytes (data not shown)
Method: as §1, §2

## CSCC[C@H](NC(=O)[C@H](CC(C)C)NC(=O)[C@H](Cc1cnc[nH]1)NC(=O)CNC(=O)[C@@H](NC(=O)[C@H](C)NC(=O)[C@H](Cc1c[nH]c2ccccc12)NC(=O)[C@H](CCC(N)=O)NC(=O)[C@H](CC(N)=O)NC(=O)CNC(=O)[C@H](CC(C)C)NC(=O)[C@H](CCCN=C(N)N)NC(=O)[C@H](CCC(N)=O)NC(=O)[C@@H]1CCC(=O)N1)C(C)C)C(N)=O [Bombesin]
[1]; 10 nM ligand, oocytes injected with RNA from ATCC #75823, clamped at -60 mV
  Cl- current response upon addition of ligand: fairly strong Cl^− currents
[1]; oocytes injected with pHHPEC49 derived RNA transcripts, n=75
  mean peak ± S.E. peak current response (chloride current): 148±47 nanoamps
Uninjected oocytes
  change in membrane potential upon addition of ligand: did not elicit any change in membrane potential

Source: US6518404B1, “Human endothelin-bombesin receptor antibodies” (priority 1994, dated 2003)
